Measurements as given in patent publication US11274111B2, “Arginase inhibitors and methods of use” (Merck Sharp & Dohme Corp., priority 2018, dated 2022).

Sequences of proteins named here, by UniProt entry; tags and fusion partners are left off.
UniProt P05089, whole entry: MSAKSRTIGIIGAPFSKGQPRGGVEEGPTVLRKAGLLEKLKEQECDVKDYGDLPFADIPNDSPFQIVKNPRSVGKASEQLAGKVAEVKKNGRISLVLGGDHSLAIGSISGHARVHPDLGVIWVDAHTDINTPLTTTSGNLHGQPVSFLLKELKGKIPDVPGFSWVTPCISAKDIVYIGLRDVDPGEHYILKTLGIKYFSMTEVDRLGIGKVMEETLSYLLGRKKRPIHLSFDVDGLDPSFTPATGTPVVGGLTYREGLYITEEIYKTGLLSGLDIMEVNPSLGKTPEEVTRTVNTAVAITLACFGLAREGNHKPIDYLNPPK

Target: Arginase (Homo sapiens, UniProt P05089)
Test: Arginase Thioornithine Generating Assay (TOGA)
Details: tested form: t-butylamine and HCl salt
Description: Arginase Thioornithine Generating Assay (TOGA)
Compounds were serially diluted in ten 3-fold steps in DMSO starting from 10 mM DMSO stocks. Compound dilutions or DMSO alone were then dispensed from the dilution plate into a Greiner black 384-well assay plate (catalog #781086) using an Echo 555 acoustic liquid handler (Labcyte).
Arginase protein was recombinantly expressed in Escherichia coli. […] Plates were briefly shaken to mix and the fluorescence was measured in an Spectramax plate reader (Molecular Devices) with a 410 nm excitation wavelength and an 490 nm emission wavelength.
Potencies were calculated by […] to the four parameter logistic IC50 equation.

Percent Inhibition at Top Dose (Top Dose 10000 nM): 99.64% | IC50 (read-out: TOGA IC50, recombinant arginase 1.88 nM, thioarginine substrate): 4.56 nM
SMILES: CN[C@H]1C[C@@H]2C[C@@](N)(C(=O)O)[C@@H](CCCB(O)O)[C@@H]2[C@H]1F

The match of structure and compound is tentative.
